Measurements reported in PubChem BioAssay AID1259254 (NCATS, 2017).
This is a random part of about 59,000 deposited reagents. In the full data, about 1,550 (2.6%) were called active. 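G2 share is only a proxy for re-replication; each gene was hit by three separate siRNAs, and active genes were retested.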 Entries without a mark were called inactive. The numbers tell different reagents against one gene apart. Not all columns of the deposit are shown. The record does not give: the amount of reagent.

Assay: 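Gene knock-downs that lead to re-replication, shown by excess G2 DNA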 (primary screen)
Cells: human HCT116 colorectal cancer cells
Knock-down reagent: single siRNA against human genes
Timing: 3 days
Read-out: 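Nuclei stained with Hoechst and imaged; cell-cycle phase assigned by DNA content; G2 share scaled per plate, non-targeting siRNA 0%, GMNN siRNA 100%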
Scale: G2 robust z-score: higher = more G2 cells, more excess DNA replication
Active means: 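An siRNA counts as active if its G2 robust z-score lies at least 5 MADs above the screen median; here such calls match roughly 38% of GMNN control or more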

MELK #1 → G2 robust z-score = -0.888
MELK #2 → G2 robust z-score = -1.16
MELK #3 → G2 robust z-score = -0.0352
MAGEA10 #1 → G2 robust z-score = -0.0646
MAGEA10 #2 → G2 robust z-score = 1.09
MAGEA10 #3 → G2 robust z-score = -0.834
SRGAP3 #1 → G2 robust z-score = 0.524
SRGAP3 #2 → G2 robust z-score = 4.85
SRGAP3 #3 → G2 robust z-score = -0.996
LOC648934 #1 → G2 robust z-score = 1.61
LOC648934 #2 → G2 robust z-score = 1.4
LOC648934 #3 → G2 robust z-score = 0.305

A run of entries taken from the entries so far, as a working copy:
SRGAP3 #2 → G2 robust z-score = 4.85
SRGAP3 #3 → G2 robust z-score = -0.996
